Laboratory results taken from publication PMC4626798 (Scientific Reports, 2015).
Results are given in words; binding and its absence hold for the method and conditions named. Some binding calls cover weakened binding; strength is not graded here. Sequences can lack the tags named with a protein. Each block holds one binder with its values, some of them ahead of it.

Tests used:
6 × His-Vhs3^PD [1] = biological target: T1, 6 × His-Vhs3^PD (S. cerevisiae, UniProt Q08438 288-577); test: co-purification by Ni2+ IMAC after co-expression; untagged Cab3^PD co-expressed in E. coli with 6 × His-tagged Hal3^PD and/or Vhs3^PD (binary and ternary mixtures); Ni2+ IMAC, SDS-PAGE and densitometry
T1 construct: Vhs3, S. cerevisiae, PPCDC domain (PD), residues 288–577; Expected MW with tag 34.5 kDa; also called PPCDC domain of Vhs3; source: E. coli BL21 (DE3), purified (Ni2+ IMAC); alone from pET28a or co-expressed with Cab3^PD (pETDuet-1); not shown: His6, N-terminal, kept
T1 sequence (looked up): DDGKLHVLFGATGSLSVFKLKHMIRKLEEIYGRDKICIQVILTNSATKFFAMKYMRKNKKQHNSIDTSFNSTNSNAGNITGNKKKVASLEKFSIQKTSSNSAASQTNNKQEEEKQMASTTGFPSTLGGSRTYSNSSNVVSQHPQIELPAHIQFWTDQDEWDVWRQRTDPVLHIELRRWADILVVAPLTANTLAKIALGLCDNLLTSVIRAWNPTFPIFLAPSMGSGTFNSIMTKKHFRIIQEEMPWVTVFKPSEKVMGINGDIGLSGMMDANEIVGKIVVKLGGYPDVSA

6 × His-Vhs3^PD [2] = biological target: T1, 6 × His-Vhs3^PD; test: SEC; purified PD proteins and co-purified mixtures on Superose 12, 50 mM phosphate pH 7.0, 150 mM NaCl, 0.4 mL/min; both purified
6 × His-Ppz1^Cter = biological target: T2, 6 × His-Ppz1^Cter (S. cerevisiae, UniProt P26570 345-692); test: co-purification by Ni2+ IMAC after co-expression; 6 × His-Ppz1^Cter and untagged Hal3 co-expressed in E. coli from pETDuet-1; His-Trap column, 50 mM Tris-HCl pH 7.5, 300 mM NaCl, washes up to 80 mM imidazole, elution 500 mM imidazole
T2 construct: Ser/Thr protein phosphatase Ppz1, S. cerevisiae, carboxyl terminal domain (Ppz1^Cter, Δ1–344), first MCS of pETDuet-1; also called N-terminally 6 × His-tagged version of Ppz1^Cter; source: E. coli BL21 (DE3), co-expressed with Hal3 from pETDuet-1; purified as the complex (Ni2+ IMAC, SEC); not shown: His6, N-terminal, kept
T2 sequence (looked up): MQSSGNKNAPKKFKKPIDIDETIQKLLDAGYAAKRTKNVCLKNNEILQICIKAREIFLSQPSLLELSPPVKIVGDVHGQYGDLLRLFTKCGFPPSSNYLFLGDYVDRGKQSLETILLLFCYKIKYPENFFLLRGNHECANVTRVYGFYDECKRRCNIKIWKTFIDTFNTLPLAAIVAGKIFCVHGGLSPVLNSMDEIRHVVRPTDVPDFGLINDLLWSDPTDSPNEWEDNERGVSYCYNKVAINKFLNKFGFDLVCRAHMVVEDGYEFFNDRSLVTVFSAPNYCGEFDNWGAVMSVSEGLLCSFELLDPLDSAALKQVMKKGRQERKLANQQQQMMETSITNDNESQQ

- binding (6 × His-Vhs3^PD [1]): binds
- binding (6 × His-Vhs3^PD [2]): binds
B1: Cab3^PD (untagged) (domain or fragment, S. cerevisiae, UniProt P36076 305-508, looked up)
chain: DDKKFHILIGATGSVATIKVPLIIDKLFKIYGPEKISIQLIVTKPAEHFLKGLKMSTHVKIWREEDAWVFDAVNKNDTSLSLNLILHHELRKWADIFLIAPLSANTLAKLANGICNNLLTSVMRDWSPLTPVLIAPAMNTFMYINPMTKKHLTSLVQDYPFIQVLKPVEKVLICGDIGMGGMREWTDIVEIVRRRINEIRKARD
notes: Cab3 (previously Ykl088w), S. cerevisiae, PPCDC domain (PD), residues 305–508; Expected MW 23.3 kDa; could not be made on its own; also called PPCDC domain of Cab3; Ykl088w PD; source: E. coli BL21 (DE3), co-expressed from the second MCS of pETDuet-1 with 6 × His-Hal3^PD and/or 6 × His-Vhs3^PD; co-purified (Ni2+ IMAC)

- binding (6 × His-Ppz1^Cter): binds
B2: Hal3 (untagged, entire, co-expressed from pETDuet-1) (natural protein, S. cerevisiae, UniProt P36024 1-562, looked up)
chain: MTAVASTSGKQDADHNQSIECPRFSRGQKEILLDHEDAKGKDSIINSPVSGRQSISPTLSNATTTTTKSIMNATGTSGAVVSNTPEPGLKRVPAVTFSDLKQQQKQDSLTQLKNDSERTKSPNSNPAPVSNSIPGNHAVIPNHTNTSRTTQLSGSPLVNEMKDYDPKKKDSALKIVDTMKPDKIMATSTPISRENNKVTAKAPTSITLRKEDAQDQANNVSGQINVRSTPEETPVKQSVIPSIIPKRENSKNLDPRLPQDDGKLHVLFGATGSLSVFKIKPMIKKLEEIYGRDRISIQVILTQSATQFFEQRYTKKIIKSSEKLNKMSQYESTPATPVTPTPGQCNMAQVVELPPHIQLWTDQDEWDAWKQRTDPVLHIELRRWADILVVAPLTANTLSKIALGLCDNLLTSVIRAWNPSYPILLAPSMVSSTFNSMMTKKQLQTIKEEMSWVTVFKPSEKVMDINGDIGLGGMMDWNEIVNKIVMKLGGYPKNNEEEDDDEDEEEDDDEEEDTEDKNENNNDDDDDDDDDDDDDDDDDDDDDDDDEDEDEAETPGIIDKHQ
notes: Hal3 (Sis2), S. cerevisiae, the entire Hal3, second MCS of pETDuet-1; also called Sis2; untagged version of Hal3; source: E. coli BL21 (DE3), co-expressed with 6 × His-Ppz1^Cter from pETDuet-1; purified as the complex (Ni2+ IMAC, SEC)
